Source: patent publication US20070009975A1
These are yes or no findings as the source states them, for the method shown. Some binding calls cover weakened binding; strength is not graded here.

By UniProt entry, the sequences of proteins in these tests, tags left out.
UniProt P42383: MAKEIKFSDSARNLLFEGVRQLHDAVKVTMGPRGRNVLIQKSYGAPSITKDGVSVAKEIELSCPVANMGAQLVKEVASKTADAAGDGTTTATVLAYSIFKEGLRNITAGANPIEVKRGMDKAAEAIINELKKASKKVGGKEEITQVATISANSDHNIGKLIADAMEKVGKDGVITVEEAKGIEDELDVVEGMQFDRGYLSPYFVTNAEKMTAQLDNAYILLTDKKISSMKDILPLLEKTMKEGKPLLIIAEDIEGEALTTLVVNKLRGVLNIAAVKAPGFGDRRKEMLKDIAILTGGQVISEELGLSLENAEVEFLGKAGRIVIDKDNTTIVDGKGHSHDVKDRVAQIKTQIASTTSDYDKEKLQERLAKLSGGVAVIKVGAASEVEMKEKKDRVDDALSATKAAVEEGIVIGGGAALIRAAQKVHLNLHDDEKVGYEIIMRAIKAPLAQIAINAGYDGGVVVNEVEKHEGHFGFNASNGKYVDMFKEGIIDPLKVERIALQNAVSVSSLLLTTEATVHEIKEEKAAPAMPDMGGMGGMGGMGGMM

How the values were obtained:
[1] = target: T1, alkylhydroperoxide-reductase of H. pylori (26 kDa-protein) (Helicobacter pylori) (UniProt P21762); test: immunoblot on H. pylori lysate (reducing SDS-PAGE), hybridoma supernatant
T1 sequence (looked up): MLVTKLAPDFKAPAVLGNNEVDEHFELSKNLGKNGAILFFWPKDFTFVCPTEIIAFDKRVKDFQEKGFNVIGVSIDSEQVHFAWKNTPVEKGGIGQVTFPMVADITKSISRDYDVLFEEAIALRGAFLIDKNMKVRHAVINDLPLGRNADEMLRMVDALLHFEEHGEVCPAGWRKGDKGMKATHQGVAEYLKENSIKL

[2] = target: T1, alkylhydroperoxide-reductase of H. pylori (26 kDa-protein) (Helicobacter pylori); test: immunoblot on purified antigen (reducing SDS-PAGE), hybridoma supernatant
[3] = target: T1, alkylhydroperoxide-reductase of H. pylori (26 kDa-protein) (Helicobacter pylori); test: Ag-specificity column of Table 2; mAbs selected by direct ELISA on the antigen (Example 4)
[4] = target: Hsp60 of H. pylori (Helicobacter pylori) (UniProt P42383); test: immunoblot on H. pylori lysate (reducing SDS-PAGE), hybridoma supernatant
[5] = target: Hsp60 of H. pylori (Helicobacter pylori) (UniProt P42383); test: immunoblot on purified antigen (reducing SDS-PAGE), hybridoma supernatant
[6] = target: Hsp60 of H. pylori (Helicobacter pylori) (UniProt P42383); test: Ag-specificity column of Table 2; mAbs selected by direct ELISA on the antigen (Example 4)

Measured: binding

B1: HP15m/3E8-D9-D6 (antibody, IgG1, V domains shown)
VH: VQLLEESGGGLVQPTGSLKLSCAASGFTFNSYAMYWVRQAPGKGLEWVARIRSKSDNYATYYANSVKDRLTISRDDSQNMLYLQMNNLKTEDTAMYYCVRDHDKFPFYYALDYWGPGTLVTVSS
VL: ELVLTQSPTIMSASLGERVTMTCTASSSVSSSYLHWYQQKPGSSPKLWIYSTSNLASGVPVRFSGSGSVTSYSLTISSMEAEDAATYYCHQYHRSPPTFGGGTKLEIK
binds: [1] | [2] | [3]

B2: HP16m/2A5-E6-E5 (antibody, mouse IgG1, V domains shown)
VH: VQLLEESGPGLVAPSQSLSITCTVSGFSLSRYSVHWVRQPPGKGLEWLGMIWGGGSTDYNSGLKSRLSISNDNSKSQVFLKMNSLQTDDTAIYYCARNMGGRYPDYFDYWGQGTTLTVSS
VL: DIVLTQSPASLAVSLGQRATISCRASKSVSTSGYSYIHWYQQKPGQPPKLLIFLASNLESGVPARFSGSGSGTDFTLNIHPVEEEDAATYHCQHSRELPLTFGAGTKLELK
binds: [4] | [5] | [6]
